Reference: paper PMC11395002
These are yes or no findings as the source states them, for the method shown. Binding calls can cover weak binding; strength is not graded here.

By UniProt entry, the sequences of proteins in these tests, tags left out. Where a name states a change or a piece, a line headed by the entry shows the natural chain unless it says otherwise.
UniProt A0A3Q7FKM9: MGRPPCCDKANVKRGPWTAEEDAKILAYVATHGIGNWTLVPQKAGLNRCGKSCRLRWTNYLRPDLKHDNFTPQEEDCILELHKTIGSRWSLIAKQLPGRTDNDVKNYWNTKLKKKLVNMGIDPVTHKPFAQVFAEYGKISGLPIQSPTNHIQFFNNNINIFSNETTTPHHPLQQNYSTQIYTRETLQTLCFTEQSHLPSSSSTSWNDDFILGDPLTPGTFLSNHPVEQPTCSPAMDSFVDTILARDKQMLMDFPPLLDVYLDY

Target: SlHB8-GST (tomato (Solanum lycopersicum))
Assay: pull-down; SlHB8-GST (or GST-null) held on GST-tagged protein purification magnetic beads, SlMYB80-his or SlTDF1-1-his added; detected by blot; both purified

SlTDF1-1-his (from UniProt A0A3Q7FKM9)
binding: binds
